Patent US6492137B1, “Response element compositions and assays employing same” (The Salk Institute for Biological Studies, priority 1989, dated 2002)

Legend:
[1] = target: T1, Retinoic acid receptor alpha (RARα) (Homo sapiens) (UniProt P10276); experiment: EMSA; details: protein in a lysate after overexpression, protein details: pCMX-hRARα transfected COS cell extract, label: 32P
T1 sequence (looked up, limits assumed): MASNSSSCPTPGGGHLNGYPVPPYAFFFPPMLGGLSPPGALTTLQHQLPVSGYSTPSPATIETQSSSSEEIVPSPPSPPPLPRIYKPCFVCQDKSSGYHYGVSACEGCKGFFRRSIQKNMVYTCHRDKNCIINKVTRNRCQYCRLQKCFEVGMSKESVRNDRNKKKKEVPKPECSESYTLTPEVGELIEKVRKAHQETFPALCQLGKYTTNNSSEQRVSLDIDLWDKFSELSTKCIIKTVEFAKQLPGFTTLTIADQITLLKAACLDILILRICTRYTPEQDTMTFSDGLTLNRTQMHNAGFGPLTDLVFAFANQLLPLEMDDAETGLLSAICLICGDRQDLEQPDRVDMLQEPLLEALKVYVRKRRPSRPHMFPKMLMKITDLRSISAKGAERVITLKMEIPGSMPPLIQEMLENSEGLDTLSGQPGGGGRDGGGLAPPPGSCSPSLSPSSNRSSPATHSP

[2] = target: T2, Thyroid hormone receptor beta (TRβ) (Homo sapiens) (UniProt P10828); experiment: EMSA; details: protein in a lysate after overexpression, protein details: pCMX-hTRβ transfected COS cell extract, label: 32P
T2 sequence (looked up, limits assumed): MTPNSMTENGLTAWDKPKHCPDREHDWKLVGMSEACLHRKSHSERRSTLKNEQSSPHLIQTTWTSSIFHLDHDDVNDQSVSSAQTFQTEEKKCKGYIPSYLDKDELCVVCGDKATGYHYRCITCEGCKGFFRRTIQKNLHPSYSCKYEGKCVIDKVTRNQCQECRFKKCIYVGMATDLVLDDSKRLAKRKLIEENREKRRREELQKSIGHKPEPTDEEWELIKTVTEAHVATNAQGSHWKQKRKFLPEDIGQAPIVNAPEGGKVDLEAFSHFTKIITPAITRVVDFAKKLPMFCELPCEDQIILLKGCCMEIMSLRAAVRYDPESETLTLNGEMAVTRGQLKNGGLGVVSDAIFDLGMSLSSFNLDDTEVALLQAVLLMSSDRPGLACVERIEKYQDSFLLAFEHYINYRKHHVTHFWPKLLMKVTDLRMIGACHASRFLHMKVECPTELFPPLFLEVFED

[3] = target: T3, Retinoic acid receptor alpha (RARα), in CV-1 cells (Homo sapiens) (UniProt P10276); experiment: activity in cells; details: protein in cells, protein details: RSV or pRS expression vector, only the site is given
T3 sequence (looked up, limits assumed): T1 sequence (looked up, limits assumed)

[4] = target: T4, Vitamin D receptor (VDR) (Homo sapiens) (UniProt P11473); experiment: EMSA; details: COS extract; protein in a lysate after overexpression; protein details: pCMX-hVDR transfected COS cell extract; label: 32P
T4 sequence (looked up, limits assumed): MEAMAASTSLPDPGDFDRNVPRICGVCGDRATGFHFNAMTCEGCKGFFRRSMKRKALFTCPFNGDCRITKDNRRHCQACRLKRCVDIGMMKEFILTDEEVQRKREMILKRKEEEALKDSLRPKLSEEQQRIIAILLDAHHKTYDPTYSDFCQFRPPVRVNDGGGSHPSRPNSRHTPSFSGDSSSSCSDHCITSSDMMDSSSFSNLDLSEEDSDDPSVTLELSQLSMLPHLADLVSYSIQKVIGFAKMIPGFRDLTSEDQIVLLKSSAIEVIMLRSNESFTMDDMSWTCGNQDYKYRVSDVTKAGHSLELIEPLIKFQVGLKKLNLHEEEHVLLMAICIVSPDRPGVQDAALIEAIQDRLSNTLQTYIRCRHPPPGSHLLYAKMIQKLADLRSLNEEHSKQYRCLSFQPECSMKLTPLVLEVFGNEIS

[5] = target: T2, Thyroid hormone receptor beta (TRβ) (Homo sapiens); experiment: competition with a labelled probe; details: protein in a lysate after overexpression, protein details: pCMX-hTRβ transfected COS cell extract
[6] = target: T5, Thyroid hormone receptor beta (TRβ), in CV-1 cells (Homo sapiens) (UniProt P10828); experiment: activity in cells; details: protein in cells, protein details: pRShTRβ, only the site is given
T5 sequence (looked up, limits assumed): T2 sequence (looked up, limits assumed)

[7] = target: T1, Retinoic acid receptor alpha (RARα) (Homo sapiens); experiment: competition with a labelled probe; details: protein in a lysate after overexpression, protein details: pCMX-hRARα transfected COS cell extract
[8] = target: T6, Vitamin D receptor (VDR), in CV-1 cells (Homo sapiens) (UniProt P11473); experiment: activity in cells; details: completely inactive, protein in cells, protein details: pRShVDR, only the site is given
T6 sequence (looked up, limits assumed): T4 sequence (looked up, limits assumed)

[9] = test system: F9 stem cell endogenous βRARE-binding activity (RAR-like) (Mus musculus); experiment: EMSA; details: pattern identical to RARα-transfected COS extract; protein in an extract; protein details: F9 teratocarcinoma whole cell extract; label: 32P
[10] = clear activity, attributed to receptor overexpression
[11] = poor competitor, variant of MHC-N
[12] = described as high affinity site
[13] = 50-fold excess did not compete MHC-N probe, variant of MHC-N
[14] = half site, functional only with cotransfected RAR, variant of βRE1

Does “AGCTGGAGGTGACAGGAGGACAGCAAGCT (double strand) [MHC-N]” bind [1]?
Result: no binding

Does “AGCTGGAGGTGACAGGAGGACAGCAAGCT (double strand) [MHC-N]” bind ([2]; COS extract, poly dI/dC, 80 mM KCl, room temperature, self-competes at 50-fold excess)?
Result: binds

What about the “activity on this sequence” value ([3]; no RA response) of the same sequence?
Its value is “not active”.

Which results are given for “AGCTTCAGGTCAAGGAGGTCAGAGAGCT (double strand) [DR-3]”?
binding result [4]: binds; activity on this sequence [3, 10]: less active

Does “AGCTGGAGGTGACGAAAGGACAGCAAGCT (double strand) [M2]” bind ([5]; 50-fold excess competed MHC-N probe, variant of MHC-N)?
Result: binds

And the “activity on this sequence” value ([6]; T3 response retained though impaired, variant of MHC-N)?
The value was “less active”.

What does the source list for “AGCTGGAGGTGAACAGGAGGACAGCAAGCT (double strand) [MHC+1]”?
binding result ([7]; much weaker affinity than MHC-R, variant of MHC-N): binds more weakly; binding result [5, 11]: binds more weakly

Does “AGCTTCAGGTCACCAGGAGGTCAGAGAGCT (double strand) [DR-5]” bind ([1]; COS extract)?
Result: binds

What does the source list for “AGCTTCAGGTCACAGGAGGTCAGAGAGCT (double strand) [DR-4]”?
binding result ([2]; COS extract): binds; activity on this sequence [3, 10]: less active

Which “activity on this sequence” value ([6]; full T3 response) does the source give for “AGCTTGAGGTGACAGGAGGACAGCAGCT (double strand) [MHC-D]” here?
Its value is “active”.

Does “AGCTCAGGGTCATTTCAGGTCCTTGAAGCT (double strand) [MLV-LTR TRE]” bind ([1]; no appreciable binding)?
Result: no binding

Does “AGCTCAGGGTCATTTCAGGTCCTTGAAGCT (double strand) [MLV-LTR TRE]” bind [2, 12]?
Result: binds

What about the “activity on this sequence” value ([6]; T3 inducible) of the same sequence?
Its value is “active”.

“AGCTTCAGAACAAGGAGAACAGAGAGCT (double strand) [GDR-3]” was tested. Which “activity on this sequence” value ([8]; variant of DR-3) did it give?
The value was “not active”.

And the “activity on this sequence” value ([6]; completely inactive, variant of DR-3)?
Its value is “not active”.

Does “AGCTAGGTAAGATCAGGTAAGTAGCT (double strand) [rGH21]” bind ([1]; no appreciable binding)?
Result: no binding

Does “AGCTAGGTAAGATCAGGTAAGTAGCT (double strand) [rGH21]” bind ([2]; binds very poorly)?
Result: binds more weakly

What about the “activity on this sequence” value ([6]; no T3 induction) of the same sequence?
Its value is “not active”.

Does “AGCTGGAGGTGAACAGGAGGTCAGCAAGCT (double strand) [MHC-R]” bind ([7]; effective competitor of βRARE probe, comparable to TREp, variant of MHC-N)?
Result: binds

Does “AGCTGGAGGTGAACAGGAGGTCAGCAAGCT (double strand) [MHC-R]” bind [5, 11]?
Result: binds more weakly

And the activity on this sequence (fold induction) ([6]; T3 100 nM, CV-1, variant of MHC-N, counted as no effect)?
Its activity on this sequence (fold induction) is 1.3.

Does “AGCTGGAGGTGACAGGAAAACAGCAAGCT (double strand) [M3]” bind [5, 13]?
Result: no binding

What about the “activity on this sequence” value ([6]; silent to T3, variant of MHC-N) of the same sequence?
Its value is “not active”.

Which “activity on this sequence” value [3, 14] does the source give for “AAGCTTAAGGGTTCACCGAGCTT (double strand) [βRE5]” here?
The value was “active”.

Which “activity on this sequence” value ([6]; T3 responsive) does the source give for “AGCTCCTTGGCTCTGGAGGTGACAGGAGGACAGCAGCT (double strand) [MHC-L]” here?
Its value is “active”.

Does “AGCTGGAGGTGACAGGAGGTCAGCAAGCT (double strand) [MHC-T]” bind ([7]; fails to compete efficiently, much weaker affinity than MHC-R, variant of MHC-N)?
Result: binds more weakly

Does “AGCTGGAGGTGACAGGAGGTCAGCAAGCT (double strand) [MHC-T]” bind ([5]; notably better competitor than wild type, variant of MHC-N)?
Result: binds

For “AGCTTCAGAACACAGGAGAACAGAGAGCT (double strand) [GDR-4]”, which “activity on this sequence” value ([8]; variant of DR-4) is on record?
Its value is “not active”.

And the “activity on this sequence” value ([6]; completely inactive, variant of DR-4)?
Its value is “not active”.

Does “AGCTGGGGTTAGGGGAGGACAGTAAGCT (double strand) [malic enzyme TRE]” bind ([1]; no appreciable binding)?
Result: no binding

Does “AGCTGGGGTTAGGGGAGGACAGTAAGCT (double strand) [malic enzyme TRE]” bind [2, 12]?
Result: binds

What about the “activity on this sequence” value ([6]; T3 responsive) of the same sequence?
The value was “active”.

Does “AGCTTCAGGTCATGACCTGAGAGCT (double strand) [TREp]” bind ([7]; effective competitor of βRARE probe)?
Result: binds

Does “AGCTTCAGGTCATGACCTGAGAGCT (double strand) [TREp]” bind ([5]; efficient competitor)?
Result: binds

How did the “activity on this sequence” value [3, 14] turn out when “AAGCTTCGAAAGTTCACTCGCATAGCTT (double strand) [βRE4]” was run?
Its value is “active”.

Which “activity on this sequence” value ([6]; no T3 response) does the source give for “AGCTCTCTGGAGGTGACAGGAAGCT (double strand) [MHC-S]” here?
Its value is “not active”.

Does “AGCTTAAGGGTTCACCGAAAGTTCACTCGCATAGCT (double strand) [βRARE]” bind ([1]; dramatically enhanced signal)?
Result: binds

Does “AGCTTAAGGGTTCACCGAAAGTTCACTCGCATAGCT (double strand) [βRARE]” bind ([2]; weak yet detectable over background, also poor competitor (p130))?
Result: binds more weakly

Does “AGCTTAAGGGTTCACCGAAAGTTCACTCGCATAGCT (double strand) [βRARE]” bind [9]?
Result: binds

What does the source list for “AGCTGGAAATGACAGGAGGACAGCAAGCT (double strand) [M1]”?
binding result [5, 13]: no binding; activity on this sequence ([6]; silent to T3, variant of MHC-N): not active

For some assays here: Negatives hold for the conditions tested. For some assays here: Protein sequences can lack the tags named with them. For some assays here: The comparison behind a weaker result is the experiment's own reference, which may not be listed here. For some assays here: Where cells or extracts were used, other partners may take part. For some assays here: Construct, isoform or probe ends are uncertain for at least one entry.
